No constants are given. Whether binding was seen depends on the method and setting. Binding seen in cells or lysates may run through a third protein. Sequences can lack the tags named with a protein.
Biological target: HA-tagged full-length HBx (hepatitis B virus X protein) (hepatitis B virus (adw2 subtype)) (UniProt P69713)
Assay: co-IP; cells cotransfected with pCMV-MAZ and pCMV-HA/HBx or pCMV-HA/HBxΔ31; lysed 48 h later in TBS with 0.5% NP-40; IP with anti-HA and blot with anti-MAZ, or IP with anti-MAZ and blot with anti-HA

The chains behind the UniProt entries cited, without tags or fusion partners.
UniProt P69713: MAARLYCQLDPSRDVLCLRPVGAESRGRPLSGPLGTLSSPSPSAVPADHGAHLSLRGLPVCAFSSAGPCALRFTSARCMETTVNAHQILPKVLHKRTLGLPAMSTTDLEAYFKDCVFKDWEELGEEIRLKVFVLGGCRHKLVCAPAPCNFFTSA

B1: myc-associated zinc finger protein (MAZ) (protein, UniProt P56270 1-477)
chain: MFPVFPCTLLAPPFPVLGLDSRGVGGLMNSFPPPQGHAQNPLQVGAELQSRFFASQGCAQSPFQAAPAPPPTPQAPAAEPLQVDLLPVLAAAQESAAAAAAAAAAAAAVAAAPPAPAAASTVDTAALKQPPAPPPPPPPVSAPAAEAAPPASAATIAAAAATAVVAPTSTVAVAPVASALEKKTKSKGPYICALCAKEFKNGYNLRRHEAIHTGAKAGRVPSGAMKMPTMVPLSLLSVPQLSGAGGGGGEAGAGGGAAAVAAGGVVTTTASGKRIRKNHACEMCGKAFRDVYHLNRHKLSHSDEKPYQCPVCQQRFKRKDRMSYHVRSHDGAVHKPYNCSHCGKSFSRPDHLNSHVRQVHSTERPFKCEKCEAAFATKDRLRAHTVRHEEKVPCHVCGKMLSSAYISDHMKVHSQGPHHVCELCNKGTGEVCPMAAAAAAAAAAAAAAVAAPPTAVGSLSGAEGVPVSSQPLPSQPW
B1 was tested, and the binding was “no binding”.
